For 1 molecule, binding results are on record in article PMC5109252.

Amino acid sequences for entries named in this document (tags omitted). A change or cut given only in a name is not applied to a line headed by its entry.
UniProt P17948: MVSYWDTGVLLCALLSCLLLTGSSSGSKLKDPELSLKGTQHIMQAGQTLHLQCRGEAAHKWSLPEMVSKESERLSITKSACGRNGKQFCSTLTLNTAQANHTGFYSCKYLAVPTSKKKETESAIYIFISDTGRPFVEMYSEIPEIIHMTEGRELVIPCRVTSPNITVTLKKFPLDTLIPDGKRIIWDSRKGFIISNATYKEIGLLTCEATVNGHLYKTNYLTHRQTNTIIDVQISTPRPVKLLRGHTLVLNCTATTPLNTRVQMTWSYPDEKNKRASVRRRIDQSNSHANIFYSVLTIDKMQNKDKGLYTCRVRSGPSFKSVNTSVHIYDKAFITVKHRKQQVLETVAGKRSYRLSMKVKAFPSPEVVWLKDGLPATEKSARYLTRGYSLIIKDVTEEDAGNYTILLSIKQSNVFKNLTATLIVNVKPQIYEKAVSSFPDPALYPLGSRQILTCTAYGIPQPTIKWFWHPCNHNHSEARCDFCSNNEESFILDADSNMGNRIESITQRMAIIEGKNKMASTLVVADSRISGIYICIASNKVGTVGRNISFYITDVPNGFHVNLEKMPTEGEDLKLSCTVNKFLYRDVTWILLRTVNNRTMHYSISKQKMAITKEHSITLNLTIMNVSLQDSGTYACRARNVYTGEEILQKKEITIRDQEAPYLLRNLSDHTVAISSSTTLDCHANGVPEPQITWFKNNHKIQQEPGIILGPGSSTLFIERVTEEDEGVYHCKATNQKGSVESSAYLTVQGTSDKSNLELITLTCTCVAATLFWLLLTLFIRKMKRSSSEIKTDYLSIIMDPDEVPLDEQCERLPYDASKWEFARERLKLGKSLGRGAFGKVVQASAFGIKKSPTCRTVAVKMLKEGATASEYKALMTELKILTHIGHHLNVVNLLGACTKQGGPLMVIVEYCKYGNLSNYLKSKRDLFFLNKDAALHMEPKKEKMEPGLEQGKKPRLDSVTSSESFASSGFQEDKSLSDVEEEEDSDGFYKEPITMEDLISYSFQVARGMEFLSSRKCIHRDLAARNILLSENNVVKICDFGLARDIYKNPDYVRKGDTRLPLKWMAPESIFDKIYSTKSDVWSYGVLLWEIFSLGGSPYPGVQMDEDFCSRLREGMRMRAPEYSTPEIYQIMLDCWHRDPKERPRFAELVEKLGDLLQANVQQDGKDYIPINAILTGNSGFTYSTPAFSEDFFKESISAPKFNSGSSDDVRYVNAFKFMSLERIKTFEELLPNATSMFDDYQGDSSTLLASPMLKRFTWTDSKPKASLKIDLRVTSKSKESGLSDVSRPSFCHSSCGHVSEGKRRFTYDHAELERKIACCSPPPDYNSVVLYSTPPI
UniProt P35968: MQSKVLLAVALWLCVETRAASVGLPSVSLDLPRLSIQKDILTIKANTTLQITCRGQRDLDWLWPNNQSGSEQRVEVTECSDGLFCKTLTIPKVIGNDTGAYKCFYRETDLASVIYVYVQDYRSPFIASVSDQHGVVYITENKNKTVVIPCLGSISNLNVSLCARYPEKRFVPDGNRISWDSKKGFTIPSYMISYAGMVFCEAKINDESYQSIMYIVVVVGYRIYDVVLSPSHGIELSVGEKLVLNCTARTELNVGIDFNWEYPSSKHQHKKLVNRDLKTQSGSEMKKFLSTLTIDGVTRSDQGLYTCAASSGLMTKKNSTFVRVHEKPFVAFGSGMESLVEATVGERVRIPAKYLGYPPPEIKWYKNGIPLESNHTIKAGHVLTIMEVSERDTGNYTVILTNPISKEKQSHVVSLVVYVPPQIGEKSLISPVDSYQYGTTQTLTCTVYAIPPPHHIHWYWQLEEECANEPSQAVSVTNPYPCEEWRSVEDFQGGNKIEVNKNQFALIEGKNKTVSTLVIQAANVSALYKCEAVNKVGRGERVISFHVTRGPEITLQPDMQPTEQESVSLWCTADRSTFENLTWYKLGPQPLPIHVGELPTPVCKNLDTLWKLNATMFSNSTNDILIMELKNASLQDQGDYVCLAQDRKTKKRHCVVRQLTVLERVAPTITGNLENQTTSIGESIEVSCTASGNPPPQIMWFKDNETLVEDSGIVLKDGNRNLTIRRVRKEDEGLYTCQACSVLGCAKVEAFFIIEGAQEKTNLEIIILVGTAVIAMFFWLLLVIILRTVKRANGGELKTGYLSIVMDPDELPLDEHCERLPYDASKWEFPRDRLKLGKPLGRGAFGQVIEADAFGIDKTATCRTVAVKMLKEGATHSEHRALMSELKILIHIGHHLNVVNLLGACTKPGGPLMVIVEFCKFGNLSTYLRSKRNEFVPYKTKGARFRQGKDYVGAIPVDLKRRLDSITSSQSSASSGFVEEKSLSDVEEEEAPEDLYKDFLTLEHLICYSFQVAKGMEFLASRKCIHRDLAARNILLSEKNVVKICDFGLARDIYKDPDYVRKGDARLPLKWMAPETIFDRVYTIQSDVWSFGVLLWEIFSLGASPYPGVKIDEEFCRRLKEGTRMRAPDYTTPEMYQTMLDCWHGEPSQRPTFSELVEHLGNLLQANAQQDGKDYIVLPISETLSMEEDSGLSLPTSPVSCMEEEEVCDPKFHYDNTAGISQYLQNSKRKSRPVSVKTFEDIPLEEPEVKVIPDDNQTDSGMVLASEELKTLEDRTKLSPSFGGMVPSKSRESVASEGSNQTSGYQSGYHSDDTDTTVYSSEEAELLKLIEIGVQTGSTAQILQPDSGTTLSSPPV

Test [1] concerns the target FLT1 (VEGFR1) printed on the human ProtoArray (human) (UniProt P17948). In words: peptide or protein array; Human ProtoArray Version 5.0 (~9500 recombinant proteins printed) probed with 80 ug purified His-SETD3 in probing buffer (0.1% Tween 20, 1% BSA, 10% PBS), 1.5 h; detected with anti-SETD3 and Alexa Fluor 647 anti-rabbit IgG; BSA-probed array as negative control; hits Z-score >3; two independent experiments; both purified.

The target in test [2] is KDR (VEGFR2) printed on the human ProtoArray (human) (UniProt P35968). The description is as above.

These are yes or no findings as the source states them, for the method shown. Binding calls can cover weak binding; strength is not graded here. Where a sequence is shown, tags or fusion partners need not be part of it.

B1: recombinant His-SETD3 (enzyme, UniProt Q86TU7 1-594)
chain: MGKKSRVKTQKSGTGATATVSPKEILNLTSELLQKCSSPAPGPGKEWEEYVQIRTLVEKIRKKQKGLSVTFDGKREDYFPDLMKWASENGASVEGFEMVNFKEEGFGLRATRDIKAEELFLWVPRKLLMTVESAKNSVLGPLYSQDRILQAMGNIALAFHLLCERASPNSFWQPYIQTLPSEYDTPLYFEEDEVRYLQSTQAIHDVFSQYKNTARQYAYFYKVIQTHPHANKLPLKDSFTYEDYRWAVSSVMTRQNQIPTEDGSRVTLALIPLWDMCNHTNGLITTGYNLEDDRCECVALQDFRAGEQIYIFYGTRSNAEFVIHSGFFFDNNSHDRVKIKLGVSKSDRLYAMKAEVLARAGIPTSSVFALHFTEPPISAQLLAFLRVFCMTEEELKEHLLGDSAIDRIFTLGNSEFPVSWDNEVKLWTFLEDRASLLLKTYKTTIEEDKSVLKNHDLSVRAKMAIKLRLGEKEILEKAVKSAAVNREYYRQQMEEKAPLPKYEESNLGLLESSVGDSRLPLVLRNLEEEAGVQDALNIREAISKAKATENGLVNGENSIPNGTRSENESLNQESKRAVEDAKGSSSDSTAGVKE
Consider B1, for which the binding entry in test [1] and in test [2] was “binds” throughout.
